The values that follow come from PubChem BioAssay AID1347423 (Functional Genomics Laboratory (NCATS/FGL), 2020).

Among all 52,000 sequences or so, about 210 (0.4%) were called active.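 Rule for the calls: active = gene whose silencing raises cell survival under the drug, median off-target-corrected z-score across its silencing RNAs 2 or more; inactive = the rest.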 This is one part of the list.

The nature of this assay: Resistance to Poly (ADP-Ribose) Polymerase inhibitor: Gene Identification via Genome-wide siRNA Screen. To be noted: mouse BRCA2 R2336H ES cells, olaparib, CellTiter-Glo viability; hits give high values. The method, boiled down:
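Genome-wide siRNA screen (3 siRNAs/gene, 20 nM) in mouse ES cells carrying hypomorphic BRCA2 R2336H; olaparib 500 nM added 48 h post-transfection, CellTiter-Glo viability 72 h later. Normalized to plate-median negative control; MAD z-scores, gene median, seed-adjusted.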
Background: ATP-based viability assays read luminescence as a measure of living cells.
With CGAACAGGAGAGCCUUAUUTT against H2-DMb2, the z-score is inactive: -2.43.
Turning to GGAAGCAUUCCAAUGGUAGTT against Cyp2c39, the z-score is inactive: -1.32.
For CCUUCUUUCGCGUAUGCCUTT against Dll1, the z-score was inactive: 0.11.
Take “CCAUAGGAACUUCUACUCCTT against 5330438E18Rik”: the z-score is inactive: -1.34.
For the sequence GCUCCUGAUCAAAUAAAGUTT against Ldh2, the z-score is inactive: 0.209.
The figure for GGACUUGAUCAAUGGCUAUTT against BC030477 is inactive: 0.318; for GGGACUCUUCACUUGAAAUTT against Ccl3 it is inactive: 0.335; for “GGAUGUAACUGAAAGAGAATT against 5830415L20Rik” it is inactive: -0.688.
As for “GGUCAAGUCAGCAUUCCUGTT against 1500019G21Rik”, the z-score is inactive: 0.436.
As to GGAUUGGAUCUUACAUGUCTT against Scnn1b, the z-score is inactive: 0.623.
Regarding GGAGAGCAAUGGUCCAACATT against Clta, the z-score is inactive: 1.09.
Turning to GCUGGCUAUACUUUACAACTT against Prkg1, the z-score is inactive: 0.164.
In the case of “GGGAGCUAGAUAUCCGGAATT against 1500032D16Rik”, the z-score was inactive: -0.155.
Turning to GGAGAUCAAGGUGAUUUCGTT against Rs1h, the z-score is inactive: -1.29.
In the case of GGUUUCUAUUCUACCUCCCTT against Ceacam14, the z-score is inactive: 0.0741.
Consider GCACUUUCGUAGAUCACCATT against Bri3bp, for which the z-score was inactive: 0.953.
For GCAGCCUGUACAGUUCUAUTT against Gpr139, the z-score was inactive: 0.492.
Under GGUGAUACUCAGUUUAAGCTT against Pms2 stands inactive: -0.346; under GGAGUGCGCUUGAAUAUGATT against Lamp1, inactive: 1.03.
Under GGGUGCACUGGCUAAUAUATT against H2-Ea stands inactive: -1.19; under GGUGCAAACUGAGGUCCUGTT against Ebna1bp2, inactive: -2.58.
The figure for “GGCAGAUGUACUGAUUAAATT against 9930032O22Rik” is inactive: 0.0206.
Take GCGUGGUUUCUGAAUACAUTT against Nt5e: the z-score is inactive: -1.13.
For GGUAUAUAACCACUCUGUCTT against Dot1l, the z-score is inactive: -0.0474.
For the sequence GGAAAAUUAAUAGCACAAGTT against Them2, the z-score is inactive: -0.221.
The figure for CCAAGCUUGUAGCUCAAGCTT against Gm443 is inactive: -0.0243; for CGAGAUCAAACCUGGCUUATT against Adarb1 it is inactive: -1.8.
The figure for “GCUAAUUUUUUGAUUGCCCTT against 2310043L02Rik” is inactive: -0.23; for GCGGCUCUUUAAGAUCCAGTT against Fbxw5 it is inactive: 0.0259; for “GGUGAUAACAAUGUCCCUUTT against 1110055J05Rik” it is inactive: -0.69.
The figure for GGUUUACCCUGCUCAUUUUTT against Fbxl6 is inactive: 0.679; for “GCACACUACAACGUAUCACTT against B930007M17Rik” it is inactive: 0.0382; for GCUCGGACUGACCUUUAUGTT against Cnot7 it is inactive: -1.91.
On to GGAGAGUGUUACAAAAAUUTT against Rcbtb1, for which the z-score is inactive: -2.06.
Under GGAGUUCAUUGUUUGGUUGTT against Nat2 stands inactive: 0.111.
Turning to GGUUAUCUUUGGGACUUAATT against Lrmp, the z-score was inactive: 0.395.
With UCGCGUCCGCUAGAAUGUUTT against MGC69750, the z-score is inactive: -1.61.
For the sequence GCCGGAAUCAAGAUUAUCATT against Foxm1, the z-score was inactive: -0.518.
With GGUGGACUCGCUGAAGAGUTT against Krt2-1, the z-score is inactive: 0.407.
GGUUCUCCAGUGGUCUGACTT against Rab7l1: the z-score was inactive: -1.71.
Turning to “CCUUACGUAACUGAACAAATT against 1500010G04Rik”, the z-score is inactive: 0.596.
For the sequence GGAAUAUCUCUUUCAAUGATT against Msn, the z-score is inactive: 0.339.
Consider CCUCAUCAUAUUGAUGAGUTT against Ranbp3, for which the z-score was inactive: 0.405.
On to GGACUACAUGCUCACGUUATT against Ccm2, for which the z-score is inactive: -0.605.
Turning to GGGUAAACUUCAUGAUCCATT against Kif5b, the z-score is inactive: -0.892.
In the case of GGUGAUGUACAACUUUUUGTT against Wdr34, the z-score was inactive: 0.894.
The figure for GGCUAUGCAAUGGAUCUGATT against Osbpl5 is inactive: -1.32; for GGAGCUUCUAGAGAAGAUCTT against Leng5 it is inactive: -2.29; for GCAUCAACACCUGUUCUAUTT against Olfr376 it is inactive: 0.319.
The figure for GGGAAAAUUCCAGAAUCGCTT against Musk is inactive: 0.606.
Turning to GCAUACGAUGGGAAUUGUATT against Wdr5b, the z-score is inactive: -0.462.
GGAGAUCGCGUUCCUUAAGTT against Des: the z-score is inactive: -0.389.
Under GGCUUAAAGGGUUUUCUGATT against Rnf13 stands inactive: 1.29.
Consider CGGCGUGUUUAUUUGCUAUTT against Rab27a, for which the z-score is inactive: 0.166.
For GGAGAUAAAAUUAUUCAGGTT against Erbb2ip, the z-score is inactive: 0.876.
GGACAUCUUUGACAUUAUATT against Tubg2: the z-score is inactive: 0.452.
With “GGUACAGAAAAUCUCUAUGTT against 4921513E08Rik”, the z-score is inactive: 1.21.
As to “GGAAGAGCUGAAACAUUUGTT against E230025N22”, the z-score was inactive: -2.15.
With GGAAAAGAAGCAAAACUUCTT against Tulp2, the z-score was inactive: 0.515.
On to GGAAAAGCAGACUUGCACCTT against Npm2, for which the z-score is inactive: -1.07.
GGAGCUUAGAGGAACGAAUTT against Cyp2j9: the z-score is inactive: -0.343.
For the sequence “CCUAAAAGCAAGGCUGCCGTT against D8Ertd738e”, the z-score was inactive: 1.16.
The figure for GGCACAGGACUUUUAAUUUTT against Emx2 is inactive: 0.294; for CGGUUUAGAUCCCAACACUTT against Pitpnb it is inactive: -0.467.
On to GGAAAAGCUGGAGGAAGACTT against Tef, for which the z-score is inactive: -0.159.
For GGAAAUCAAAAUCCUGAAGTT against Ulk1, the z-score is inactive: -0.869.
Take GGGACCCGGAAACAACACATT against Tyrobp: the z-score is inactive: 0.504.
The figure for AAAGUCUUUCACUUUCUAUTT against Zfp457 is inactive: 1.42.
In the case of GGCCAUGUGACAUAAAAAATT against Lat, the z-score is inactive: 0.821.
Under GGGCAUGUGGAUGACUGAUTT against AU067744 stands inactive: -1.45; under GCUAAGUUAAGCUUAAUACTT against Rbl1, inactive: -0.43.
GGUCAAUUAUGAAGCACCUTT against Pabpc4: the z-score is inactive: -0.381.
For GCAACAUUGGAUGUACUCATT against Hdac10, the z-score was inactive: 4.01.
The figure for GGAAGAAGACUCAGAAAGUTT against Prkag2 is inactive: -0.116.
On to GCAGAUUGUGCAGCUAGCATT against Pax4, for which the z-score is inactive: 1.46.
Take GGCCUCUGUGGUGUUUAACTT against Omp: the z-score was inactive: -1.51.
On to GCAGGAUUGCGUCCAUAUCTT against Mbd1, for which the z-score was inactive: -0.404.
With GCUCUGGUUGCCAGUUAUGTT against LOC234374, the z-score was inactive: 0.442.
On to “CCUACUGGAGUCUCCUCUUTT against C030022K24Rik”, for which the z-score was inactive: -2.81.
As to GGUACAAGGUCAUCAUGAGTT against Olfr1341, the z-score is inactive: -0.695.
For the sequence GCUCUUGAAAUUUCACUCUTT against Ide, the z-score is inactive: 0.986.
With GGAAGUUGAGGCUUUGAAGTT against Bnip3l, the z-score was inactive: 1.36.
For the sequence GCUUACUAAGGUGAUAAUGTT against Il17d, the z-score is inactive: 0.427.
Under “GGGCCCUUAGAAAAUGUGUTT against 2810038K19Rik” stands inactive: -0.463; under GGGAUGACUUGGAGUCUCUTT against Csnk1d, inactive: -0.832; under GGAAAUCAGCUGAAUUACUTT against Dicer1, inactive: -0.73.
For the sequence “CCAUCACCGAAGUAAAAAATT against 1700129I15Rik”, the z-score was inactive: 0.492.
For the sequence GGAUACAAGCCUUUUAACCTT against Sri, the z-score is inactive: 0.749.
As to UCACAGUCAUCAUUGUUUCTT against Olfr825, the z-score is inactive: -0.312.
The figure for GGUGACCUAGAACCUACAGTT against Gtlf3a is inactive: -1.72; for “GGCAGAUUUAGGGAAAUAATT against 1700009P17Rik” it is inactive: -2; for GGCUCUGAGAUUCGACUAGTT against P4hb it is inactive: 0.386.
Take GGUAAACUCUUGAACAGUATT against Rai1: the z-score was inactive: -1.4.
Consider GGUAUUACGUCAAAUGCCATT against Sec24a, for which the z-score was inactive: -0.0731.
Under CUAGAUGCACAGAAUAGCATT against Prm1 stands inactive: 0.203; under “GGAGAAUGACAUCUUGAGCTT against 9030221A05Rik”, inactive: 0.0836.
For CCAGCUAUCUCAAAAUGAGTT against Sim1, the z-score was inactive: 1.17.
Regarding GGAACAAAGAGUUUAAGGATT against Olfr1415, the z-score was inactive: 1.08.
GGGAACAGGAGAAAACGGATT against Bnipl: the z-score is inactive: 1.18.
GGUUUGGUGUACUUUUCAUTT against Akr1c6: the z-score is inactive: -0.0478.
Under GCUGGAGAUCAUCCUUCAGTT against Rph3al stands inactive: 0.172.
Turning to CCUAUUGUCUGAUAGCCCUTT against Ms4a7, the z-score is inactive: -0.221.
As for GGGUCAAAGGAAUAAAACATT against Slc22a5, the z-score is inactive: -0.0966.
Regarding GGCUGUAUGGGCGAAUAACTT against Plxnd1, the z-score was inactive: -0.595.
Turning to GGUACUACUUAGUUUUACUTT against Creg, the z-score is inactive: 1.61.
